According to PubChem BioAssay AID1508600 (Functional Genomics Laboratory (NCATS/FGL), 2020):
In all, about 53,000 sequences went through this assay and about 3,700 (7%) were called active.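 Rule for the calls: active = gene knockdowns whose robust z-score for IL-1 alpha signal is at least 2 or at most -2, so actives lie on both sides; inactive = the rest.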 The list shows a part of the results.

Assay: Components of the Cytosolic LPS Sensing Pathway: Gene Identification via Genome-wide siRNA Screen;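 note: robust z of the log signal after scaling to non-targeting control siRNA wells of the plate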
Conditions: RAW264.7 macrophages, IL-1a HTRF, actives lie on both sides, screened at 100 nM (by protocol), cells primed 5 h with Pam3CSK4 first
Outline: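 RAW264.7; siRNA 100 nM final, RNAiMAX, 48h 37 degrees C; Pam3CSK4 5 h; LipidA + TransIT-TKO 24 h; IL-1a HTRF; CellTiter-Glo viability; robust z vs negative-control median.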

Sequence | z-score
CCAUUAUAACUGUAUCUGATT against Gm609 | inactive: -1.55
GGCCUUUUCAACUUGUGGGTT against Olfr1048 | inactive: -1.83
GGCUUAGGAAUCUAGGACUTT against D830044D21Rik | inactive: -0.404
CCAUAUAUUAUGGACCUUATT against Hepacam2 | inactive: -0.576
GGUACUUCCUACCUAACAGTT against Nipa1 | inactive: -0.235
GGAACUCAGCUACAGUGAATT against Mettl17 | inactive: 0.0663
CCUAGUGACUUUAAUGGGATT against Mrgprf | inactive: 0.182
CGACCUAAUGACAUUAUCATT against Egln3 | inactive: 0.164
GGCAUCUCCAUCAAUACAGTT against Pdcl | inactive: 1.8
GCACCUGAGAAGCUCAUUGTT against Chil5 | inactive: -1.96
CGGAAAUCAACAUUGCGUUTT against Stxbp1 | inactive: 0.394
CCAGUUUAGUGGCUCUUCCTT against Lrrc23 | inactive: 0.411
GGCUCACAAUGAAAAAGGUTT against Zfp668 | inactive: -1.02
GCAGCACAUAGAAACGUGUTT against Fnbp1 | inactive: -0.0942
GGUGAGCCUGAGAUUUAAATT against Tpsb2 | inactive: 0.376
GGGAAUUGCCUCAGCUAAGTT against Men1 | active: 2.95
GCGAUUGGCAGAUUGCUACTT against Tmem47 | inactive: 1.01
GGGCCUGAUUUCCUAUGCUTT against Pglyrp4 | inactive: 0.658
GGGAGAGUGUUUGUUCAUUTT against Dusp1 | inactive: -0.082
CCACCAUUUAUAUUUGGUUTT against Slc35g1 | inactive: -0.298
GCAAACUAGAUAUCUAGGGTT against Lmx1a | inactive: 0.385
GGAACAUCCAAAGCUCCACTT against Trim30d | inactive: 1.02

Sequence | z-score
GGGACUUUGGGCUAAAUAGTT against Tspan1 | inactive: -1.32
GGAGGACCAGUGCAUCUUUTT against Gpr173 | inactive: -0.0215
GGUUCCUAGUUACAACAUCTT against Pcdhga12 | inactive: 1.1
GCGUAUUACACCCUUGGAATT against Terf1 | inactive: -0.462
CCAGACUUGGGUGAAUGAATT against Olfr450 | inactive: 0.129
CCUGCCUUUGUAAAAGCCGTT against Bid | inactive: 0.283
GCCUGUUUGGUAUUCUUCCTT against Olfr832 | inactive: -1.19
CCAUCCCGUUCACUAGAGATT against Mypn | inactive: -1.73
GCACCACUAAUCGAGUUGGTT against Pigf | inactive: -0.265
GGACUCUGGAACAAGUCACTT against Slc2a8 | inactive: -0.599
CCCUGGUAUUGGUUUCACATT against Tlcd1 | inactive: -0.738
GCAUAUUACACAGCACUAGTT against Itgbl1 | inactive: -0.802
CCUGAUAAACUCUAGUGUGTT against Six5 | inactive: -1.96
GGAGGAAGACGAGUUCAUUTT against Rassf2 | inactive: -0.576
GCGAUUUCUGGACAGCAAUTT against Cyp2r1 | inactive: 0.207
GCAGAAAAACGUGAACAUUTT against Ces3b | inactive: 0.0397
CCUAGCAGUACUGUACGGUTT against Klc1 | inactive: 1.68
GGAUGGAGCUACUGAAAUUTT against Dera | inactive: 0.39
UGUUGGUGGGCCUUAUAUUTT against Olfr1153 | inactive: -1.02
GCAUGAUGCUGAGACAAGATT against Lce3c | inactive: -1.69
GGCUAAGCUAUACCACCAUTT against Cckbr | inactive: -1.32
GCUGUGUUAGGAUUGUCCATT against Olfr553 | inactive: 0.252

Sequence | z-score
CGUAGGUUCUAACGAUUCCTT against C730034F03Rik | inactive: -0.688
GGGUUAGCGCAUAAAGACATT against Fv4 | inactive: 0.0276
CCAGGUUCUGACCACCUACTT against Htr3a | inactive: 0.819
CCCAAAAAGUUCAAACAAGTT against Retreg1 | inactive: -0.872
GCACUUGUGGAUCAAUACCTT against Efhd1 | inactive: 0.179
CCAUUUCUUAGUGGGACUATT against Ogdh | inactive: 1.26
CGGAUUCAGACCAAUUGGUTT against Zscan22 | inactive: 0.549
GGACAAUGAGAUUCUUCUCTT against Mptx1 | inactive: -1.58
GGAACUGGCUUCAAACCUUTT against Plac9a | inactive: -1.09
GGGCAAUGAAUGACAUUGGTT against Gabrd | inactive: -0.368
GCUGAUGUUUGUUAUGUACTT against Rgmb | inactive: 0.365
GGGUGAACUCGGACAUUGATT against Spata19 | inactive: -0.754
GGUGACCUACAAUCUCAAATT against Adam2 | inactive: 0.987
GGCAAAGUUUGGGAUUACATT against Ntng1 | inactive: 1.17
GGAAGAAGAUCACCAUCAUTT against Ifi204 | active: -2.64
GGUGGUAAUUGGUGUGGCATT against Slc9b2 | inactive: -0.188
CGGUAGAGUCAGCAUUUGATT against Sez6 | inactive: -0.231
GCUACAGCCACACCAAAGUTT against Nkx2-9 | inactive: -1.33
GGCUACUCAACCGAUAGUGTT against Mis18a | inactive: 0.242
GGUACCCACACAAUUUUUATT against Alg5 | inactive: -0.046
CGAUCGGCGACCUUUUAGATT against Irak3 | inactive: -0.527
GGUCAAUGCUUACUAUUCATT against Kel | inactive: 1.6

Fetched one by one from the entries so far:
Sequence | z-score
GGACAAUGAGAUUCUUCUCTT against Mptx1 | inactive: -1.58
GGGUUAGCGCAUAAAGACATT against Fv4 | inactive: 0.0276
GGAAGAAGAUCACCAUCAUTT against Ifi204 | active: -2.64
GGUACCCACACAAUUUUUATT against Alg5 | inactive: -0.046

Carrying on.

Sequence | z-score
CGUGGUUAGACCAAAUAUUTT against Mrps6 | inactive: -0.194
GGGUAACAUCUUCAGAUUUTT against Hcar2 | inactive: 0.495
GGAGUGUGACAUUGGUGAUTT against Dusp22 | inactive: -0.0356
GGUAAAAGUAGAAGCUAUUTT against Zbtb3 | inactive: -1.22
CCAUGUCAAUAUAGCUGUCTT against Igfbpl1 | active: 2.25
GGAAAGUCAUUUCCCUGUUTT against Sprr2h | inactive: -0.986
GGAGUUUCAACUCUUCUUCTT against Necab2 | inactive: -0.576
CCUCAGAAUUCGAAUGAACTT against Atad5 | inactive: 0.224
GGUCUUUCUUCGAGGAGUCTT against Ccdc33 | inactive: -1.03
GGCAGAAUUCUUGAGAGAUTT against Kcnk10 | inactive: -1.3
GGACCAUCCCUUCUUCUAUTT against Coq8a | inactive: -0.428
GGCUUUCCUUACCAUAUAUTT against Trim7 | inactive: -0.675
GCUGGAUACUAAAUAUCCUTT against Dctd | inactive: -0.136
GGGAUUUCAUCGUGCAACGTT against Ndufa2 | inactive: -0.553
GGUGGAAGCAAGAGAAAAUTT against Tnp1 | active: 2.03
GGCACUAAUGUAAAAACCATT against Bbs7 | inactive: -1.58
CGGAACACUUUAGAAUCUATT against Ccdc92b | inactive: 0.573
CCUGGAUCGGAACCAAAUGTT against Ccl2 | inactive: 1.16
GGGCAAAAGUACUUUGACUTT against Ensa | active: 2.2
GGAAAAAGCGGUGACCAACTT against Ndufs2 | inactive: 0.341
GGAGAAAGGAACUGAAAGUTT against Msrb3 | inactive: 0.139
GGACAACGAGUGUCUGGGUTT against Cx3cr1 | active: 4.8

Sequence | z-score
GGUACAGGUUGACCAAACUTT against Atp6v1e2 | inactive: -1.58
CCUGGACAUAACCAAUGUATT against Glrp1 | inactive: 1.5
CCAGAUUAUGACAAAGCGUTT against Glyat | inactive: -0.0538
GGUCUUCCUUCCAGUGUUCTT against Slc5a8 | inactive: -0.808
GGGACAUUGCUCAAGAUUATT against Ankrd54 | inactive: 0.582
CCUGGAUGCAGGUUAAGCUTT against Dppa5a | inactive: -0.817
CCAGCCAGACUGAAAAAGCTT against Stmnd1 | inactive: -0.652
GCUGCUAUGAGAGAGUUUUTT against Serpind1 | active: 2.18
CGGCCUACAUCUUAGUGGUTT against Cd151 | inactive: -0.757
GCUUAAGCGACUUCAUUGCTT against Gimap7 | inactive: 1.19
GGAAAAUGUUUUACCAAUGTT against Rspry1 | inactive: -0.102
GGAAAGAAGGUGAACAACATT against Phax | inactive: 1.96
GGUGGAAGGAAAGAGACCUTT against Gimap7 | inactive: 0.472
GGUUACAGAGAGACAUCAUTT against Cdk5rap2 | inactive: 0.942
GCCUUCAGUCCUAGAAACCTT against Lrrk1 | inactive: 0.177
CCAGAUCCUAUCUUUCGAGTT against 2610318N02Rik | inactive: -0.221
GGCACCAUGUACCAAAUCCTT against Fetub | inactive: 0.601
CGAUUAUGACCGAUAUAGATT against Srsf10 | inactive: 0.626
GGACCUAAAGUUUCUCUCATT against Ccnc | inactive: -0.2

For reference, part of the list above:
Sequence | z-score
GGUCUUCCUUCCAGUGUUCTT against Slc5a8 | inactive: -0.808
GGGACAUUGCUCAAGAUUATT against Ankrd54 | inactive: 0.582
CCUGGAUGCAGGUUAAGCUTT against Dppa5a | inactive: -0.817
CCAGCCAGACUGAAAAAGCTT against Stmnd1 | inactive: -0.652
